This note sets out measurements from publication PMC12017883.

Amino acid sequences for entries named in this document (tags omitted). A change or cut given only in a name is not applied to a line headed by its entry.
UniProt P00441: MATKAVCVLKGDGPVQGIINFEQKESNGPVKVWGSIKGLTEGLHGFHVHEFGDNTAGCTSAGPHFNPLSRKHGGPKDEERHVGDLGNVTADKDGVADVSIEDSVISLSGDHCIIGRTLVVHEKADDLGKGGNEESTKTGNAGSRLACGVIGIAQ

This experiment concerns the target human mtSOD1-L126delTT with a FLAG sequence at the C terminus (human) (UniProt P00441). The experiment in a line: affinity purification with mass spectrometry; anti-FLAG M2 IP (5 ug antibody, protein A/G magnetic beads) from the nuclear fraction of DF7 cells (500 ug total protein); control IP with monoclonal mouse IgG (MOPC 21); DIA proteomics; hits: log2 FC >= 2 over control or missing in the control IP.

Results are given in words; binding and its absence hold for the method and conditions named. In cells and extracts the contact can be indirect. A yes stands for co-enrichment or nearness to the bait. Other partners may have been found.

B1: Ataxin-2-like protein (protein, UniProt Q7TQH0 1-1049)
chain: MLKPQPPQQTSQPQQPPPTQQAVARRSPGGTSPPNGGLPGPLTATAAPPGPPAAVSPCLGPAAAAGSGLRRGAESILAASAPPQHQERPGAVAIGSVRGQTTGKGPPQSPVFEGVYNNSRMLHFLTAVVGSTCDVKVKNGTTYEGIFKTLSSKFELAVDAVHRKASEPAGGPRREDIVDTMVFKPSDVLLVHFRNVDFNYATKDKFTDSAIAMNSKVNGEHKEKVLQRWEGGDSNSDDYDLESDMSNGWDPNEMFKFNEENYGVKTTYDSSLSSYTVPLEKDNSEEFRQRELRAAQLAREIESSPQYRLRIAMENDDGRTEEEKHSAVQRQGSGRESPSLVSREGKYIPLPQRVREGPRGGVRCSSSRGGRPGLSSLPPRGPHHLDNSSPGPGSEARGINGGPSRMSPKAQRPLRGAKTLSSPSNRPSGEASVPPTSAALPFLPVGRMYPPRSPKSAAPAPVSASCPEPPIGSAVASSASIPVTSSVVDPGAGSISPASPKLSLTPTDVKELPTKEPSRNLEAQELARIAGKVPGLQNEQKRFQLEELRKFGAQFKLQPSSSPETGLDPFPSRILKEEAKGKEKEVDGLLTSDPMGSPVSSKTESILDKEDKVPMAGVGGTEGPEQLPAPCPSQTGSPPVGLIKGDEKEEGPVTEQVKKSTLNPNAKEFNPTKPLLSVNKSTSTPTSPGPRTHSTPSIPVLTAGQSGLYSPQYISYIPQIHMGPAVQAPQMYPYPVSNSVPGQQGKYRGAKGSLPPQRSDQHQPASAPPMMQAAAAAAGPPLVAATPYSSYIPYNPQQFPGQPAMMQPMAHYPSQPVFAPMLQSNPRMLTSGSHPQAIVSSSTPQYPAAEQPTPQALYATVHQSYPHHATQLHGHQPQPATTPTGSQPQSQHAAPSPVQHQAGQAPHLGSGQPQQNLYHPGALTGTPPSLPPGPSAQSPQSSFPQPAAVYAIHPHQQLPHGFTNMAHVTQAHVQTGVTAAPPPHPGAPHPPQVMLLHPPQGHGGPPQGAVPPSGVPALSASTPSPYPYIGHPQVQSHPSQQLPFHPPGN
Take B1: the binding entry was “binds”.

B2: Periostin (protein, UniProt Q62009 24-838)
chain: NSYYDKVLAHSRIRGRDQGPNVCALQQILGTKKKYFSSCKNWYQGAICGKKTTVLYECCPGYMRMEGMKGCPAVMPIDHVYGTLGIVGATTTQHYSDVSKLREEIEGKGSYTYFAPSNEAWENLDSDIRRGLENNVNVELLNALHSHMVNKRMLTKDLKHGMVIPSMYNNLGLFINHYPNGVVTVNCARVIHGNQIATNGVVHVIDRVLTQIGTSIQDFLEAEDDLSSFRAAAITSDLLESLGRDGHFTLFAPTNEAFEKLPRGVLERIMGDKVASEALMKYHILNTLQCSEAITGGAVFETMEGNTIEIGCEGDSISINGIKMVNKKDIVTKNGVIHLIDEVLIPDSAKQVIELAGKQQTTFTDLVAQLGLASSLKPDGEYTLLAPVNNAFSDDTLSMDQRLLKLILQNHILKVKVGLSDLYNGQILETIGGKQLRVFVYRTAICIENSCMVRGSKQGRNGAIHIFREIIQPAEKSLHDKLRQDKRFSIFLSLLEAADLKDLLTQPGDWTLFAPTNDAFKGMTSEERELLIGDKNALQNIILYHLTPGVYIGKGFEPGVTNILKTTQGSKIYLKGVNETLLVNELKSKESDIMTTNGVIHVVDKLLYPADIPVGNDQLLELLNKLIKYIQIKFVRGSTFKEIPMTVYTTKIITKVVEPKIKVIQGSLQPIIKTEGPAMTKIQIEGDPDFRLIKEGETVTEVIHGEPVIKKYTKIIDGVPVEITEKQTREERIITGPEIKYTRISTGGGETGETLQKFLQKEVSKVTKFIEGGDGHLFEDEEIKRLLQGDTPAKKIPANKRVQGPRRRSREGRSQ
As for B2, the binding entry is recorded as “binds”.

B3: Leucine zipper protein 1 (protein, UniProt Q8R4U7 1-1068)
chain: MAELTNYKDAASNRHLRFKLQSLSRRLDELEEATKNLQRAEDELLDLQDKVIQAEGSDSSTLAEIEVLRQRVLKIEGKDEEIKRAEDLCHTMKEKLEEEENLTRELKSEIERLQKRMVDLEKLEEALSRSKNECSQLCLSLNEERNLTKKISSELEMLRVKVKELESSEDRLDKTEQSLVSELEKLKSLTLSFVNERKYLNEKEKENEKIIKELTQKLEQNKKMNRDHMRNASTFLERNDLRIEDGISSTLSSKESKRKGSLDYLKQVENETRDKSENEKNRNQEDNKVKDLNQEIEKLKTQIKHFESLEEELKKMRAKNNDLQDNYLTELNRNRSLASQLEEIKLQVRKQKELGNGDIEGEDAFLLGRGRHERTKLKGHGSEASVSKHTSRELSPQHKRERLRNREFALSNEHYSLSSKQASSPVFTNKRAAKASNMGMGTDSGTQETKRTEDRFAPGSSHSEGKRGREQPSVLSRYPPAAQEHTKVWKGAPKPGTESGLKGKVEKTTRTFSDSTHVSVPNDIVGKGDKTSDLSSEAHCGKRGQVPGHASQGTQAVESSCSKAIGALSSSQKASSEGLSKGKKTANGLAADANFSNSKAPILSKYPYSSRSQENILQGFSLPNKEGVDQPVAVVMEDSSQHEALRCRVIKSSGREKPDSDDDLDIESFVTAKLVNTTITPEPEPKPQPNSREKVKSRGGTRTALFENDKNAAIENDSVKPTRPSSNAIEFPDANCAGVKNQRPFSPREALRSRAIIKPVIIDKDVKKIMGGSGTEVVLEKQKSTSKSVTSKVTSSITIYPSDSSGPRAVPSEAPRERHTSTSNIQVGPPELTAISNHVSSPLELSIHKHDITLQLTEAERVGDGSPKNRAEMVVSRSSILIKPSESVEKNSHVPPAETIRWKSHSASSDSRHITVRNAWKSKRDLKCSEDPPTGIGRNMEATNAYTQRPCTDFLELEQPRSQPSEQGARRVGNSGDAPELSPRRTQSSLTASEVLTRRDRMGGAITAASCNHSSSMEEGEDSTFVTSRRIHNPLEHSELPGKQGLPEPEPVWTEERLHPAKPYAEED
Consider B3, for which the binding entry is recorded as “binds”.

B4: Myeloid leukemia factor 2 (protein, UniProt Q99KX1 1-247)
chain: MFRFMRDVEPEDPMFLMDPFAIHRQHMSRMLSGGFGYSPFLSITDGNMPATRPASRRMQAGAVSPFGMLGMSGGFMDMFGMMNDMIGNMEHMAAGGNCQTFSSSTVISYSNTGDGAPKVYQETSEMRSAPGGIRETRRTVRDSDSGLEQMSIGHHIRDRAHILQRSRNHRTGDQEERQDYINLDESEAAAFDDEWRRETSRYRQQRPLEFRRHEASVGGGRRAEGPPRLAIQGPEDSPSRQSRRYDW
B4: the binding result is on record as “binds”.

B5: Ras association (RalGDS/AF-6) and pleckstrin homology domains 1 (protein, UniProt F2Z3U3 1-1266)
chain: MEQLSDEEIDHGAEEDSDKEDQDLDKMFGAWLGELDRLTQSLDSDKPKEPVKRSPLRQETNMANFSYRFSIYNLNEALNQGETVDLDALMADLCSIEQELSSIGSGNSKRQVTEPKVPQKLPAGRHTSKHGTLRGPSSSSNRTTKPSHANYSLDDITAQLEQASLSMDEAAQQSLVEDPKPLVTNQHRRTASAGTVSDAEARSISNSSRSSITSAASSMDSLDIDKVTRPQELDLTTHQGQPITEEEQAAKLKAEKIRVALEKIKEAQVKKLVIRVHMSDDSSKTMMVDERQTVRQVLDNLMDKSHCGYSLDWSLVETISELQMERIFEDHENLVENLLNWTRDSQNKLIFMERIEKYALFKNPQNYLLGKKETAEMADRNKEVLLEECFCGSSVTVPEIEGVLWLKDDGKKSWKKRYFLLRASGIYYVPKGKAKVSRDLVCFLQLDHVNVYYGQDYRNKYKAPTDCCLALKHPQIQKKSQYIKYLCCDDARTLHQWVNGIRIAKYGKQLYTNYQEALKRTESAYDWTSLSSSSIKSGSSSSSIPESQSNHSNQSDSGVSDTLPTGHIRSQSTVSSIFSEAWKRGTQLEESSKARMESMNRSYTSLMPPLSPQTKIITPYTASQPSPPLPPPPPPPPPPPPPPPPPPPPLPSQSAPSSGSAATMFVKYSTITRLQNAAQHSGTLFKSPTPPAMQPLPLASQSKAQIVVPPNGVIPPPPPPPPPPTPGSAMAQLKPVPCAPSLPQFSPQPPPLKIHQVQHLPQTAPPTPPPAPPITATVPPQAPPKPLVTIPPSASTKTVSPVVAQAVPPTPAPPVPPAKKQPVFPVSHIPPTPPVQPTPHPPPTLPKQQSFGVKPPPSPLSPVPSVVKQIASQFPPPPTPPPVDSQPLKSLPASGTPQSPPAVKAKPKWQPSSIPVPSPDFPPPPPESSLVFPPPPPPAPAPAPPPPPPPPPPPPPVPPTASPTPDKGGSPGKKTSKMSSPGGKKPPPTPQRNSSIKSGSCAEHPEPKRPSVDSLVSKFAPPAESGSPSKETPPPPAAPPKPGKLHLSGVNLPGIHQQGIVSAKASVLSGRGKDVVVEFPSPPSDSDFPPPPPEIELPLPPIEIPAVFSGNTSPKVAVVNPQPQLWSKTSVKKAPPPTRPKRNDSTRLTQADISEQPAMTTVVPQVPTSPKSSLSVQPGFLADLNRTLQRKSITRHGSLSSSRMSRAEPTATMDDMALPPPPPELLSDQQKAGFGGSHISGYATLRRGPPPAPPKRDQNTKLSRDW
For B5, the binding entry is recorded as “binds”.
